In this experiment the target is T1, Xenopus laevis HAS isoform 1 (Xenopus laevis, UniProt P13563).
T1 construct: also called XlHAS1; DG42
In words: SEC + cryo-EM structure; purified XlHAS1 on Superdex200 in GDN detergent (20 mM Tris-HCl pH 7.8, 150 mM NaCl, 0.02% GDN); cryo-EM of the XlHAS1-Fab complex; both purified.

No constants are given. Whether binding was seen depends on the method and setting.

B1: Xenopus laevis HAS isoform 1 (enzyme, UniProt P13563 1-588)
chain: MKEKAAETMEIPEGIPKDLEPKHPTLWRIIYYSFGVVLLATITAAYVAEFQVLKHEAILFSLGLYGLAMLLHLMMQSLFAFLEIRRVNKSELPCSFKKTVALTIAGYQENPEYLIKCLESCKYVKYPKDKLKIILVIDGNTEDDAYMMEMFKDVFHGEDVGTYVWKGNYHTVKKPEETNKGSCPEVSKPLNEDEGINMVEELVRNKRCVCIMQQWGGKREVMYTAFQAIGTSVDYVQVCDSDTKLDELATVEMVKVLESNDMYGAVGGDVRILNPYDSFISFMSSLRYWMAFNVERACQSYFDCVSCISGPLGMYRNNILQVFLEAWYRQKFLGTYCTLGDDRHLTNRVLSMGYRTKYTHKSRAFSETPSLYLRWLNQQTRWTKSYFREWLYNAQWWHKHHIWMTYESVVSFIFPFFITATVIRLIYAGTIWNVVWLLLCIQIMSLFKSIYACWLRGNFIMLLMSLYSMLYMTGLLPSKYFALLTLNKTGWGTSGRKKIVGNYMPILPLSIWAAVLCGGVGYSIYMDCQNDWSTPEKQKEMYHLLYGCVGYVMYWVIMAVMYWVWVKRCCRKRSQTVTLVHDIPDMCV
On to B1, for which the binding result was “no binding”.

For the origin of these results see PMC11750622, “Structural insights into translocation and tailored synthesis of hyaluronan” (Nature Structural & Molecular Biology, 2024).
